# Laboratory results taken from paper PMC7796559, “Connecting the conformational behavior of cyclic octadepsipeptides with their ionophoric property and membrane permeability” (Organic & biomolecular chemistry, 2020).
# Experiment: NMR titration with monovalent cations in CD3OH
# Format: physicochemical
# Conditions: qualitative, from change in asymmetric : symmetric ratio
smiles,measurement,value
CC(C)CC1C(=O)OC(Cc2ccccc2)C(=O)N(C)C(CC(C)C)C(=O)OC(C)C(=O)N(C)C(CC(C)C)C(=O)OC(Cc2ccccc2)C(=O)N(C)C(CC(C)C)C(=O)OC(C)C(=O)N1C (stereo not shown) [PF1022A (1)],Order of cation affinities of the symmetric conformer,Cs^+ > K^+ > Na^+ > NH4^+
